# Measurements reported in PubChem BioAssay AID2685 (National Center for Advancing Translational Sciences (NCATS), 2010).
# The list shows a part of the results. Further columns of the screen follow, without active or inactive calls. Compounds called inactive in the main read-out are mostly missing here. Potencies come from curve fits of mixed quality, noted in brackets.
# Assay: qHTS Assay for Lipid Storage Modulators in Drosophila S3 Cells;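 as to cell number change: cells counted by Cell Tracker Red CMTPX staining in the red channel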
# Settings: BODIPY lipid droplet fluorescence, 18-24 h; for cell number change: measured here: cell count max response, cells fed with added oleic acid
# Outline: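 Drosophila S3 cells got compounds at several concentrations plus oleic acid (400 uM solution). Laser-scanning cytometry with 488 nm excitation read lipid droplets at 500-530 nm and cells at 575-640 nm. Percent activity was relative to 20 uM Triacsin C.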
# [1] = measured here: cell number channel AC50, cells fed with added oleic acid
# [2] = measured here: lipid fluorescence (Fed channel) AC50, cells fed with added oleic acid
Structure (SMILES),cell number change,AC50 [1],AC50 [2]
O=C(O)c1ccc(CN2C(=O)c3cccc4c([N+](=O)[O-])ccc(c34)C2=O)cc1,-63.9%,"25.9 µM [falling, single point]","7.31 µM [rising, partial curve]"
Cc1ccc(C(=O)N2CCN(c3ccccc3)CC2)cc1NC(=O)c1ccco1,-2.6%,,"6.51 µM [rising, single point]"
CC(=O)c1ccc(OC(C)C)c(CSC(=N)N)c1,-15.1%,,"29.1 µM [falling, single point]"
O=C(COC(=O)c1cc2ccccc2cc1O)c1ccccc1,18.5%,,"29.1 µM [rising, partial curve]"
CC(C)OCCCNC(=O)COCC(=O)Nc1ccc(OCCc2ccccc2)cc1,11.8%,,
COc1ccc(OC)c(N(CC(=O)N2CCCC2)S(=O)(=O)c2ccc(C)cc2)c1,-3.95%,,"5.62 µM [rising, single point]"
CCOCCCNC(=O)C(NC(=O)c1ccc2c(c1)OCO2)c1ccc(OC)cc1 (stereo not given),-25.7%,,"0.082 µM [falling, full curve, poor fit]"
O=C1NC2(CCCCCC2)C(=O)N1Cc1ccccc1,18%,,"8.2 µM [rising, partial curve]"
CCCCCCC(=O)NN1CCN(C)CC1,,,"23.1 µM [falling, partial curve]"
CCCCn1c(NC(C)CC)nc2c1c(=O)[nH]c(=O)n2C (stereo not given),-34.1%,"6.51 µM [falling, partial curve, poor fit]","29.1 µM [rising, single point]"
CC(C)CC1NC(=O)N(CC(=O)N2c3ccccc3NC(=O)C2(C)C)C1=O (stereo not given),-36.2%,"32.6 µM [falling, single point]","25.9 µM [falling, partial curve, poor fit]"
O=S(=O)(c1ccccc1)N1CCC(O)(CSc2ccc(F)cc2)CC1,-10.7%,,
CC(=O)c1c(C)[nH]c(C(=O)COC(=O)c2cccnc2Cl)c1C,3.57%,,"0.731 µM [rising, single point]"
COC(=O)c1ccc(COC(=O)c2[nH]c(C)c(C(C)=O)c2C)o1,-16.9%,,"16.4 µM [falling, single point]"
O=C(O)c1ccc(NC(=O)C2CC=CCC2C(=O)O)cc1 (stereo not given),,,"0.291 µM [falling, full curve, poor fit]"
CC(=O)Nc1cccc(NC(=O)c2cc3ccccc3o2)c1,-21.3%,"4.61 µM [falling, single point]","9.2 µM [falling, partial curve]"
CC(Nc1ccccc1)C(=O)Nc1ccc(F)cc1 (stereo not given),-0.551%,"0.0731 µM [rising, full curve, poor fit]",
Nc1nc(-c2ccccc2)cn1N,-19.7%,,"20.6 µM [falling, partial curve, poor fit]"
O=C(ONC1=NCCCCC1)c1cccc([N+](=O)[O-])c1,-128%,"16.4 µM [falling, partial curve]","18.4 µM [falling, partial curve]"

Structure (SMILES),cell number change,AC50 [1],AC50 [2]
CCCCC1=CC2=C(c3ccco3)C(=O)C(C)(OC(=O)c3ccc(OC)cc3)C(=O)C2=CN1C1CCCCC1 (stereo not given),-68.6%,"25.9 µM [falling, partial curve]",
CC1=C(C(=O)OC(C)C)C(c2cccnc2)n2ncnc2N1 (stereo not given),,,"0.411 µM [rising, single point]"
Cc1ccc(-c2csc(NC(=O)N3CCOCC3)n2)cc1,-22.5%,"3.66 µM [falling, full curve, poor fit]","6.51 µM [falling, single point]"
CSCCOC(=O)COc1ccc(/C=N/NC(=O)c2nn(C)cc2Cl)cc1,,,"6.51 µM [rising, single point]"
CC(Sc1nnc(-c2ccccc2)c(-c2ccccc2)n1)C(=O)N1CCc2ccccc21 (stereo not given),-22.3%,,"18.4 µM [falling, single point]"
COCCCN1C(=O)C(=O)/C(=C(/O)c2ccc(S(=O)(=O)N3CCCCC3)cc2)C1c1cccc(OC)c1 (stereo not given),31%,"0.92 µM [rising, full curve, poor fit]","29.1 µM [rising, single point]"
COc1ccccc1CNC(=O)COC(=O)C1CCN(S(=O)(=O)c2ccc(C)c(C)c2)CC1,,,"20.6 µM [rising, single point]"
COc1ccc(NS(=O)(=O)c2ccc3c(c2)NC(=O)C(C)S3)cc1 (stereo not given),-15.3%,,"29.1 µM [falling, single point]"
COc1ccc(NC(=O)c2cnc(SCC(=O)NCCc3ccccc3)n(C)c2=O)cc1,,,"1.46 µM [rising, partial curve]"
Cn1c(S(=O)(=O)O)nc2ccccc21,-2.88%,,"4.61 µM [rising, partial curve]"
Cc1nnc(-c2cnn(C)c2N)n1Cc1ccccc1F,42.3%,"16.4 µM [rising, single point]",
CC(C)(C)c1ccc(C(=O)NCCC(=O)Nc2cc(Cl)ccc2N2CCOCC2)cc1,-21.4%,,"0.146 µM [falling, full curve, poor fit]"
O=C(O)C1CCN(C(=O)c2cccc3ccccc23)CC1,24.6%,,"0.92 µM [falling, full curve, poor fit]"
Cc1cc(Cl)ccc1OCC(=O)NN1C(=O)C2C3C=CC(C3)C2C1=O (stereo not given),-14.9%,,"6.51 µM [rising, partial curve, poor fit]"
Cc1ccc2c(CN3CCN(CCO)CC3)cc(=O)oc2c1,-5.48%,"6.51 µM [rising, single point]",
Cc1ccc(NC2=C(N3CCOCC3)C(=O)c3ccccc3C2=O)cc1,-167%,"29.1 µM [falling, single point]","29.1 µM [falling, single point]"
O=C(CSc1nnc(NCc2ccccc2)s1)NC1CCS(=O)(=O)C1 (stereo not given),-7.49%,,"0.0058 µM [falling, full curve]"
O=C(COc1ccc(Cl)cc1Cl)NC(=S)N1CCCc2ccccc21,53.7%,"11.6 µM [rising, partial curve]","0.58 µM [rising, single point]"

# Part of the list above, with bars between the fields.
Structure (SMILES) | cell number change | AC50 [1] | AC50 [2]
CC(C)OCCCNC(=O)COCC(=O)Nc1ccc(OCCc2ccccc2)cc1 | 11.8% |  | 
COc1ccc(OC)c(N(CC(=O)N2CCCC2)S(=O)(=O)c2ccc(C)cc2)c1 | -3.95% |  | 5.62 µM [rising, single point]
CCOCCCNC(=O)C(NC(=O)c1ccc2c(c1)OCO2)c1ccc(OC)cc1 (stereo not given) | -25.7% |  | 0.082 µM [falling, full curve, poor fit]
